According to PMC9368491:
No constants are given. Whether binding was seen depends on the method and setting. In cells and extracts the contact can be indirect. These calls come from enrichment with a bait or labelling near it, and not all partners need be listed.

By UniProt entry, the sequences of proteins in these tests, tags left out.
UniProt P15924: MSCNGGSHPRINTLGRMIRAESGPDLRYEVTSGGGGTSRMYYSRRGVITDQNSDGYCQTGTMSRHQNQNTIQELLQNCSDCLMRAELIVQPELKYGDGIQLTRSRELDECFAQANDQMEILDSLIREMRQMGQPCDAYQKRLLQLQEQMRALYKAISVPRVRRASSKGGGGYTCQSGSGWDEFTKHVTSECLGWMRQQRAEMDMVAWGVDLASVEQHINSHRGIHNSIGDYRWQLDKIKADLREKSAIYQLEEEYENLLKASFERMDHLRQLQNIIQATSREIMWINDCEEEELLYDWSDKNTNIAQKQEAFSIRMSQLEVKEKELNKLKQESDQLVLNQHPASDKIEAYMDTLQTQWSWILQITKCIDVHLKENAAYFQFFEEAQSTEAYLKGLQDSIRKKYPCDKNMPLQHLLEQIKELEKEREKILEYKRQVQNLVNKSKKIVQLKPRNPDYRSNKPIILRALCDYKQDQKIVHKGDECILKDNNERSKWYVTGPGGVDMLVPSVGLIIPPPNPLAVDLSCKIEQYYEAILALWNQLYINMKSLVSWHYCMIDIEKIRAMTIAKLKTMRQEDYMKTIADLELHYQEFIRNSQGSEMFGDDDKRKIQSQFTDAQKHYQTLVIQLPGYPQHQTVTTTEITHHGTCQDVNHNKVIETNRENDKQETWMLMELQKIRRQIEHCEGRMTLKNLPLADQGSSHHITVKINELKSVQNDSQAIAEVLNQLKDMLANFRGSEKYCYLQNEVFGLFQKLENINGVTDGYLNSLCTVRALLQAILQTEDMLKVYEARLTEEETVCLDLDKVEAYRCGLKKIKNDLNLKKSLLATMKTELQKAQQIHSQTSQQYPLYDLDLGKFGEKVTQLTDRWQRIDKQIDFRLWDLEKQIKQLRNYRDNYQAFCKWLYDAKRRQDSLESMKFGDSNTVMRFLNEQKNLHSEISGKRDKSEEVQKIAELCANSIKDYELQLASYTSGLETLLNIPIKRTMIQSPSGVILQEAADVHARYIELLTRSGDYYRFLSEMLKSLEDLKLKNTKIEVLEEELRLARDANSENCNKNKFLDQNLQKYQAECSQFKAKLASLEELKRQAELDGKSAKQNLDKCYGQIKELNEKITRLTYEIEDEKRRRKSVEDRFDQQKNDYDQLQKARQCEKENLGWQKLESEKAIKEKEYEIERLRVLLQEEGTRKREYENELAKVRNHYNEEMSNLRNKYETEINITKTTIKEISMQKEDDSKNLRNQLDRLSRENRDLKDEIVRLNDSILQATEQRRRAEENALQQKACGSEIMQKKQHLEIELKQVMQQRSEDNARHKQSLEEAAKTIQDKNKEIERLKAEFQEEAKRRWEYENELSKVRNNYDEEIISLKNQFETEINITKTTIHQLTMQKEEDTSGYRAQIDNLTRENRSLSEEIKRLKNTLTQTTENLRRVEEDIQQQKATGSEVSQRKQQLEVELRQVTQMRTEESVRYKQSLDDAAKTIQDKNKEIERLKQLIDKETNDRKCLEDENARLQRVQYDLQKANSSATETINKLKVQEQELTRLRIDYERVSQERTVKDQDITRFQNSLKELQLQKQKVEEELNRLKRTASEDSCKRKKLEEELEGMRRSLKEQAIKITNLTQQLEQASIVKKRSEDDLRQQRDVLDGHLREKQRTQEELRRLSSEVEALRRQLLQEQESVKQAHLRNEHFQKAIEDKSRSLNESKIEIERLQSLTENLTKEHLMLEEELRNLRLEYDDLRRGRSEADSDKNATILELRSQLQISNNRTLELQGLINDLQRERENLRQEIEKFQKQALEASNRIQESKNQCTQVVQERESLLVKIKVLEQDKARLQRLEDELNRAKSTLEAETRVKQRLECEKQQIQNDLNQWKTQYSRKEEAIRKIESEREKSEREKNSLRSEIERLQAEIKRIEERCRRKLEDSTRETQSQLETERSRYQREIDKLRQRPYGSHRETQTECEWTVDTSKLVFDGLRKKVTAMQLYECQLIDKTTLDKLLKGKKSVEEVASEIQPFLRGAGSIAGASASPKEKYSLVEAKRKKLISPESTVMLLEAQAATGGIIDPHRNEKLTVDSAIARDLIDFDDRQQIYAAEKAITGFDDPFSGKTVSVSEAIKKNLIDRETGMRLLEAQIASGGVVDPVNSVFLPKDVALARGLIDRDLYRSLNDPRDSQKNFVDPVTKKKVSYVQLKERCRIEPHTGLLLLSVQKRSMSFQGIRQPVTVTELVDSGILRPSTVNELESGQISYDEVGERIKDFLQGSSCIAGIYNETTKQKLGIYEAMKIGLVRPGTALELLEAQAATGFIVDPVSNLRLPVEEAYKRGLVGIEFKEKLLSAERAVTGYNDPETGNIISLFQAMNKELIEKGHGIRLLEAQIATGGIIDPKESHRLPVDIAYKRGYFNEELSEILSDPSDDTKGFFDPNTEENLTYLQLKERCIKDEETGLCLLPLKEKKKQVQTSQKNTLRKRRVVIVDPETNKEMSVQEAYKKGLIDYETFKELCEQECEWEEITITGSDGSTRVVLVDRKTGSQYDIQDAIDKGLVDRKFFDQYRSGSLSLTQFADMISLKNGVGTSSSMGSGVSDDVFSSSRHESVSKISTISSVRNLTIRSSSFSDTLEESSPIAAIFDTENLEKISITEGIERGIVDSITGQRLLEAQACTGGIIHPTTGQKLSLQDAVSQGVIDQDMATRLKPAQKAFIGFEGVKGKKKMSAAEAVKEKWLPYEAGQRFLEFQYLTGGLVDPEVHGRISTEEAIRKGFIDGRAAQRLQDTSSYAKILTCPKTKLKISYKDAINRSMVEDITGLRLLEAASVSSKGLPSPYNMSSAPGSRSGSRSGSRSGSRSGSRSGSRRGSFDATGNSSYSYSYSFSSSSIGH
UniProt Q05397: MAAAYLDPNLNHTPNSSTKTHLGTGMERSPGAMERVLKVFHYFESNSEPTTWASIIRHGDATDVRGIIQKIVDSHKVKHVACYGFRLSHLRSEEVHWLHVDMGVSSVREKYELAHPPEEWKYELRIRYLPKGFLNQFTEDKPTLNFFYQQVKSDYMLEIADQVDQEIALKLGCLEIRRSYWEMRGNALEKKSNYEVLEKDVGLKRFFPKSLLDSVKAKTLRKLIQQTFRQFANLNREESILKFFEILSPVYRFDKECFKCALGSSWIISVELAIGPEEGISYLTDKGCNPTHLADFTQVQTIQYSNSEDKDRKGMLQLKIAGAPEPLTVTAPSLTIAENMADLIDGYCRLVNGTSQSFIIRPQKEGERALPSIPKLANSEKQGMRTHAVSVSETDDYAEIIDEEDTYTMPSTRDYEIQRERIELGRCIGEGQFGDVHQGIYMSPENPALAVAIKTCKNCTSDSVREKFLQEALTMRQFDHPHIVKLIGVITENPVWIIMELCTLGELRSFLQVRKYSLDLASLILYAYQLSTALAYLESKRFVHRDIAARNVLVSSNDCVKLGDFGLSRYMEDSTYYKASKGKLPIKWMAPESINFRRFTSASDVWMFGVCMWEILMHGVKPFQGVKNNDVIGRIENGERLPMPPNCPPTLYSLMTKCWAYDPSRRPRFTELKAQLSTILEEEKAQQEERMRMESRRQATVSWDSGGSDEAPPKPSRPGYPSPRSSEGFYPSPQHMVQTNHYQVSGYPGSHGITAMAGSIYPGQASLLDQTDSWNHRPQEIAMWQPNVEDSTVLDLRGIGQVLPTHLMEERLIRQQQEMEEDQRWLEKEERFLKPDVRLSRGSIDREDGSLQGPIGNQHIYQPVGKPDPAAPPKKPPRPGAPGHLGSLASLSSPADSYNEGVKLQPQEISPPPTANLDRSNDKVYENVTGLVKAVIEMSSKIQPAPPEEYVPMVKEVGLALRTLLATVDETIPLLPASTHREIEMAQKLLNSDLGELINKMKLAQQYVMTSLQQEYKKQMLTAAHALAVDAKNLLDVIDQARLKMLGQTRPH
UniProt P49023: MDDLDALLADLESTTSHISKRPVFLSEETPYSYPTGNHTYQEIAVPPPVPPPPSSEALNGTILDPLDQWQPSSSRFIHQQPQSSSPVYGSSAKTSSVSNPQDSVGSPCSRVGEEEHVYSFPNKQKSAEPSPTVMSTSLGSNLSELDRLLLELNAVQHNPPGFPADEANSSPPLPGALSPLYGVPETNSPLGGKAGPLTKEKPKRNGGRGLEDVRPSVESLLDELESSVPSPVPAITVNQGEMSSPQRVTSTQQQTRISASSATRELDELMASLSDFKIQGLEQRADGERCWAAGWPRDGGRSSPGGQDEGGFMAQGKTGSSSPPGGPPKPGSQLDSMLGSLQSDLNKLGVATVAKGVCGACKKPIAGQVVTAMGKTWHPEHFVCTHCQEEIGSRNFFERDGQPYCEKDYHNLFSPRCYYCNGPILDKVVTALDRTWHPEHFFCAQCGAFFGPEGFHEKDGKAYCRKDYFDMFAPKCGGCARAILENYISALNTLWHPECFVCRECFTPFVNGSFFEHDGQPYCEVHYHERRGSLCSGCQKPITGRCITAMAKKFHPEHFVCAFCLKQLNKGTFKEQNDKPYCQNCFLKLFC

Legend:
[1] = biological target: β-catenin (human (endogenous in MDA-MB-231)) (UniProt P35222); assay: affinity purification with mass spectrometry; MDA-MB-231 cells treated with DMSO or 50 μM NS1643; lysate incubated overnight at 4 °C with anti-β-catenin antibody crosslinked to Protein A/G magnetic beads; eluate TMT6plex labelled, LC-MS/MS; protein intensity normalised to β-catenin intensity
[2] = biological target: T1, β-catenin (human (endogenous in MDA-MB-231)), P35222; assay: as above; details: remark: other sources report otherwise
T1 chain: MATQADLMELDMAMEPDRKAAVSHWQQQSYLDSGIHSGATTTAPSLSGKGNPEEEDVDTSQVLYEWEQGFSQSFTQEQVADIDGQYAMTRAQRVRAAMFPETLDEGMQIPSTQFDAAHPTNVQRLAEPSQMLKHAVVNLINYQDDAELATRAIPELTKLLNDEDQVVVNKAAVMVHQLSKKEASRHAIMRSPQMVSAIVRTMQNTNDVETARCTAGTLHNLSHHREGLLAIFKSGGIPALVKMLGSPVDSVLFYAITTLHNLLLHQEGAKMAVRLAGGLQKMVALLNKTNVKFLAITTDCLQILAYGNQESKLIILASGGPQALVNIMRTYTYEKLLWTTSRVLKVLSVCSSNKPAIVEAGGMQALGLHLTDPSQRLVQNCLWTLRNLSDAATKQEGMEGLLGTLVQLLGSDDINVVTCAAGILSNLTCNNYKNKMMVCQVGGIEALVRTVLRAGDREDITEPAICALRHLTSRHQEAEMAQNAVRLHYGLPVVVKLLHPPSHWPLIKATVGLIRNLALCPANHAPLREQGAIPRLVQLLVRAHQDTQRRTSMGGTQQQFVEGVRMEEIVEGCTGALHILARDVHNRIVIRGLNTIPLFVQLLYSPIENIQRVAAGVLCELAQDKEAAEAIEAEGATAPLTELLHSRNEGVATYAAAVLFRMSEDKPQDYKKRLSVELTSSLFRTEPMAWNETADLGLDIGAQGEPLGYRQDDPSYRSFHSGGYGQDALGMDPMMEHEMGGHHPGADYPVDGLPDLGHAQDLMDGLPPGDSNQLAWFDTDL

For “desmoplakin (from UniProt P15924 1-2871)”, the binding [1] was “binds”.

In the case of “focal adhesion kinase (FAK) (from UniProt Q05397 1-1052)”, the binding [1] is reported as “binds”.

paxillin (from UniProt P49023 1-591) was tested, and the binding [1] was “binds”.

B1: desmoglein-2, Q14126 50-1118 (protein)
chain: AWITAPVALREGEDLSKKNPIAKIHSDLAEERGLKITYKYTGKGITEPPFGIFVFNKDTGELNVTSILDREETPFFLLTGYALDARGNNVEKPLELRIKVLDINDNEPVFTQDVFVGSVEELSAAHTLVMKINATDADEPNTLNSKISYRIVSLEPAYPPVFYLNKDTGEIYTTSVTLDREEHSSYTLTVEARDGNGEVTDKPVKQAQVQIRILDVNDNIPVVENKVLEGMVEENQVNVEVTRIKVFDADEIGSDNWLANFTFASGNEGGYFHIETDAQTNEGIVTLIKEVDYEEMKNLDFSVIVANKAAFHKSIRSKYKPTPIPIKVKVKNVKEGIHFKSSVISIYVSESMDRSSKGQIIGNFQAFDEDTGLPAHARYVKLEDRDNWISVDSVTSEIKLAKLPDFESRYVQNGTYTVKIVAISEDYPRKTITGTVLINVEDINDNCPTLIEPVQTICHDAEYVNVTAEDLDGHPNSGPFSFSVIDKPPGMAEKWKIARQESTSVLLQQSEKKLGRSEIQFLISDNQGFSCPEKQVLTLTVCECLHGSGCREAQHDSYVGLGPAAIALMILAFLLLLLVPLLLLMCHCGKGAKGFTPIPGTIEMLHPWNNEGAPPEDKVVPSFLPVDQGGSLVGRNGVGGMAKEATMKGSSSASIVKGQHEMSEMDGRWEEHRSLLSGRATQFTGATGAIMTTETTKTARATGASRDMAGAQAAAVALNEEFLRNYFTDKAASYTEEDENHTAKDCLLVYSQEETESLNASIGCCSFIEGELDDRFLDDLGLKFKTLAEVCLGQKIDINKEIEQRQKPATETSMNTASHSLCEQTMVNSENTYSSGSSFPVPKSLQEANAEKVTQEIVTERSVSSRQAQKVATPLPDPMASRNVIATETSYVTGSTMPPTTVILGPSQPQSLIVTERVYAPASTLVDQPYANEGTVVVTERVIQPHGGGSNPLEGTQHLQDVPYVMVRERESFLAPSSGVQPTLAMPNIAVGQNVTVTERVLAPASTLQSSYQIPTENSMTARNTTVSGAGVPGPLPDFGLEESGHSNSTITTSSTRVTKHSTVQHSYS
For B1, the binding [2] was “binds”.
